The values that follow come from publication PMC3466170.

These are yes or no findings as the source states them, for the method shown. Some results given as binding are weak or reduced against the parent protein; the word gives no strength.

This experiment has as its target T1, outer membrane porin OprF (PA1777) (P. aeruginosa (endogenous in PAO1 and PATI2)) (UniProt P13794).
T1 sequence: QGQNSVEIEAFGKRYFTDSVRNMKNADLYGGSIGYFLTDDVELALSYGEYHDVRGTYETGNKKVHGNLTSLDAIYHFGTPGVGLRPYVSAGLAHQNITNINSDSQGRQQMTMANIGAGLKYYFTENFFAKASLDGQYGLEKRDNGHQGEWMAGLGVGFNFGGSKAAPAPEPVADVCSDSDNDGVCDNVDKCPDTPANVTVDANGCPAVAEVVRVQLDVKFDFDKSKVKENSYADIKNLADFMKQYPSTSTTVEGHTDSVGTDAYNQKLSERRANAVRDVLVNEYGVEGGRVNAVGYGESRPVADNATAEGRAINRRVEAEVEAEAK
The experiment in a line: far-Western, overlay or dot blot; data not shown; OprF eluted from the His-LecB column transferred to a blotting membrane (PVDF) and treated with 1 µg/ml peroxidase-labelled LecB; both purified.

For “peroxidase labelled LecB (from UniProt Q9HYN5 1-115)”, the binding result is listed as “binds”.
